Measured values taken from paper PMC3436762.
No constants are given. Whether binding was seen depends on the method and setting. Binding seen in cells or lysates may run through a third protein. Some entries that bind do so weakly or less than the wild type.

The chains behind the UniProt entries cited, without tags or fusion partners. Residues count along the entry.
UniProt O14763, residues 56-440: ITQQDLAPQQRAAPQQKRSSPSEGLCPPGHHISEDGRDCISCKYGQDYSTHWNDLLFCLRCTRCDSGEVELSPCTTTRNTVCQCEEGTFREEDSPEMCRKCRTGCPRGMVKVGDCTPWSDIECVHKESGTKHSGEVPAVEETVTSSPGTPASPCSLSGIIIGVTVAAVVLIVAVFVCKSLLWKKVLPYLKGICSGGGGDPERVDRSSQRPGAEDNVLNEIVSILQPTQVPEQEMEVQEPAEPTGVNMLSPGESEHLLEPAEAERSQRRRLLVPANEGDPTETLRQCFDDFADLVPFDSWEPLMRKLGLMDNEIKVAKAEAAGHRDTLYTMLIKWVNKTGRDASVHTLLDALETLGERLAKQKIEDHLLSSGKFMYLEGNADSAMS
UniProt Q13158: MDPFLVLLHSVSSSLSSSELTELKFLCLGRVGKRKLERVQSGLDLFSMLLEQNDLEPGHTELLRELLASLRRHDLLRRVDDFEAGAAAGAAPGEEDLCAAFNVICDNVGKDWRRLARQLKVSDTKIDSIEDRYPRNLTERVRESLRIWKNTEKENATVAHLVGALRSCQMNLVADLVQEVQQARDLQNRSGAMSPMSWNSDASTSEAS
UniProt Q14790: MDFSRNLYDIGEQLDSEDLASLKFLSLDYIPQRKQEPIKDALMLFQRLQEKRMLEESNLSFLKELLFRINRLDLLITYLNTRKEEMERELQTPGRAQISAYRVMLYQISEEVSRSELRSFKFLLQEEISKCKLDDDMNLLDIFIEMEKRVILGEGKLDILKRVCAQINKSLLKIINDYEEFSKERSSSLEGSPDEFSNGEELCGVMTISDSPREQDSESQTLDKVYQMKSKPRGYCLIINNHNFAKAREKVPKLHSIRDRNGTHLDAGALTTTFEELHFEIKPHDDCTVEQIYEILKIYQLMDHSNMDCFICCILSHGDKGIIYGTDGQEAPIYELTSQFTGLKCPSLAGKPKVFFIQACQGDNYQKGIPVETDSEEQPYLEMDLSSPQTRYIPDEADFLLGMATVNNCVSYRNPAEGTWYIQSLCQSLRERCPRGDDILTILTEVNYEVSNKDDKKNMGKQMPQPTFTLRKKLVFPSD

Legend:
[1] = target: membrane DR5 (endogenous, Jurkat and Daudi cells) (human (endogenous in Jurkat and Daudi)) (UniProt O14763); test: co-IP; Jurkat cells treated with LaDR5 for 1 hour at 37°C, lysed in 20 mM Tris-HCl, 150 mM NaCl, 10 % glycerol, 2 mM EDTA, 1 % NP-40, pH 8.0; protein A beads; blot for FADD and caspase-8
[2] = target: membrane DR5 (endogenous, Jurkat and Daudi cells) (human (endogenous in Jurkat and Daudi)) (UniProt O14763); test: co-IP; Daudi cells (LaDR5-insensitive) treated with LaDR5 for 1 hour at 37°C, lysed in 20 mM Tris-HCl, 150 mM NaCl, 10 % glycerol, 2 mM EDTA, 1 % NP-40, pH 8.0; protein A beads; blot for FADD and caspase-8

Substance | binding [1] | binding [2]
FAS associated protein with death domain (FADD) (from UniProt Q13158 1-208) | binds | no binding (condition: in Daudi cells (LaDR5-insensitive))
caspase-8 (from UniProt Q14790 1-479) (enzyme) | – | no binding (condition: in Daudi cells (LaDR5-insensitive))
